Source: article PMC9700792
No constants are given. Whether binding was seen depends on the method and setting. Binding seen in cells or lysates may run through a third protein. Some results given as binding are weak or reduced against the parent protein; the word gives no strength.

The chains behind the UniProt entries cited, without tags or fusion partners. Residues count along the entry.
UniProt Q9JLV5: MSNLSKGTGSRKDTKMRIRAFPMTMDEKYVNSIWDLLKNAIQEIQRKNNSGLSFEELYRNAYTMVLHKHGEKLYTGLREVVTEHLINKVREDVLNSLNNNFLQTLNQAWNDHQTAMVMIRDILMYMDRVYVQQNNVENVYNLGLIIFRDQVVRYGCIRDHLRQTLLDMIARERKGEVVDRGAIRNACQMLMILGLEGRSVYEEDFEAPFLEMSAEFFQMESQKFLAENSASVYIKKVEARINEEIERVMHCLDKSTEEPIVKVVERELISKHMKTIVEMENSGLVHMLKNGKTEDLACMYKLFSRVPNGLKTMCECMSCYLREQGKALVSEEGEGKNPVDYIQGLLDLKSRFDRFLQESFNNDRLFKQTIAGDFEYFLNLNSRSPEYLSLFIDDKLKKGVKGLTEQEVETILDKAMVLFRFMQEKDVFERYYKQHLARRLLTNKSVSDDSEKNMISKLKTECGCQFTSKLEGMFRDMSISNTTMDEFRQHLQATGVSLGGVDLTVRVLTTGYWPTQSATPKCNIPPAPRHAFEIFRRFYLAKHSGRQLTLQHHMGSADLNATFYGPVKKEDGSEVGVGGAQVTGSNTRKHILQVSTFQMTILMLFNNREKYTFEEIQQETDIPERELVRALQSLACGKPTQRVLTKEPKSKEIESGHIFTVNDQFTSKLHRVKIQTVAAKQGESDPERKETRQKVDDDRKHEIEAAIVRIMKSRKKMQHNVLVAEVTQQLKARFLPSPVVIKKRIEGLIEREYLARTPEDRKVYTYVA
UniProt Q8BNW9: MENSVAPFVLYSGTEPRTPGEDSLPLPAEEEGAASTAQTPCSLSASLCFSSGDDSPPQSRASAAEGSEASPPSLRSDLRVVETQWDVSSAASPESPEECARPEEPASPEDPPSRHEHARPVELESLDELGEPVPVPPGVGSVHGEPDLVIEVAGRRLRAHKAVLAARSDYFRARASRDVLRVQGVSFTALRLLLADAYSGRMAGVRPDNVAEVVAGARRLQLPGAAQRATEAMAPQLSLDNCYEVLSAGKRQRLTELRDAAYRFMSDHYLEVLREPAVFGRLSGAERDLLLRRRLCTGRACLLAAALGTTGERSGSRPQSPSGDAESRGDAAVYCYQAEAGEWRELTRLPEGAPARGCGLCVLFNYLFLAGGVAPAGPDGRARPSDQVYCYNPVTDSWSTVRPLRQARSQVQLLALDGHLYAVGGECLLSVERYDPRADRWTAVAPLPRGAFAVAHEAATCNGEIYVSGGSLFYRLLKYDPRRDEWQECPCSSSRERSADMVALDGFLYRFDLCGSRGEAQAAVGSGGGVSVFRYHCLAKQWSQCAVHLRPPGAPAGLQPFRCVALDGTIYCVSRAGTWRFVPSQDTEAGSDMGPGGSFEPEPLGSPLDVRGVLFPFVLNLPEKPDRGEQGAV
UniProt P63038, residues 27-573: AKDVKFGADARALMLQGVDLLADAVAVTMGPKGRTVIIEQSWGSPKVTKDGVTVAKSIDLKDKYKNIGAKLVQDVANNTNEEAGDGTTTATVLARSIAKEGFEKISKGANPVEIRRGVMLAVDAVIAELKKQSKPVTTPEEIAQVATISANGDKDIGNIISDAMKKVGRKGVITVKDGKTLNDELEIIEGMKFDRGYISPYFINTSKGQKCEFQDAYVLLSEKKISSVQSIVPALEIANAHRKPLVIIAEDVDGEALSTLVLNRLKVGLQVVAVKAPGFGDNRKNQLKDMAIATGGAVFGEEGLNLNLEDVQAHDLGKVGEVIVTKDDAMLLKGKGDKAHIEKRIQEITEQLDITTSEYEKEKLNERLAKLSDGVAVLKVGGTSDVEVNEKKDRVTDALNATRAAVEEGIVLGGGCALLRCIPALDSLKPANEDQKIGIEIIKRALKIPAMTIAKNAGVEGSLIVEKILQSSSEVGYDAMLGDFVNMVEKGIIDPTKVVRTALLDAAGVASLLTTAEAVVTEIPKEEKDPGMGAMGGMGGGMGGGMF

How the values were obtained:
[1] = target: Cullin3 (mouse (endogenous in 3T3-L1)) (UniProt Q9JLV5); test: co-IP; whole-cell lysates of 3T3-L1 cells infected with GFP or FLAG-His-tagged KBTBD11 adenovirus, immunoprecipitated with anti-Cullin3 antibodies
FLAG-His-tagged KBTBD11 = FLAG-His-tagged KBTBD11 (UniProt Q8BNW9); test: co-IP; whole-cell lysates of 3T3-L1 cells infected with GFP or FLAG-His-tagged Kbtbd11 adenovirus, immunoprecipitated with anti-FLAG antibody, blotted with anti-FLAG, anti-HSC70, anti-HSP60 and anti-Cullin3

| Substance | binding [1] | binding (FLAG-His-tagged KBTBD11) |
| --- | --- | --- |
| FLAG-His-tagged KBTBD11 (from UniProt Q8BNW9 1-633) | binds |  |
| Cullin3 (from UniProt Q9JLV5 1-768) |  | binds |
| HSP60 (from UniProt P63038 27-573) | no binding | binds |
